# Source: article PMC12507952
# These are yes or no findings as the source states them, for the method shown. In cells and extracts the contact can be indirect. Some results given as binding are weak or reduced against the parent protein; the word gives no strength.
# T1: RANK (mouse (endogenous in bone marrow-derived pre-OCs)) (UniProt O35305)
# T1 sequence: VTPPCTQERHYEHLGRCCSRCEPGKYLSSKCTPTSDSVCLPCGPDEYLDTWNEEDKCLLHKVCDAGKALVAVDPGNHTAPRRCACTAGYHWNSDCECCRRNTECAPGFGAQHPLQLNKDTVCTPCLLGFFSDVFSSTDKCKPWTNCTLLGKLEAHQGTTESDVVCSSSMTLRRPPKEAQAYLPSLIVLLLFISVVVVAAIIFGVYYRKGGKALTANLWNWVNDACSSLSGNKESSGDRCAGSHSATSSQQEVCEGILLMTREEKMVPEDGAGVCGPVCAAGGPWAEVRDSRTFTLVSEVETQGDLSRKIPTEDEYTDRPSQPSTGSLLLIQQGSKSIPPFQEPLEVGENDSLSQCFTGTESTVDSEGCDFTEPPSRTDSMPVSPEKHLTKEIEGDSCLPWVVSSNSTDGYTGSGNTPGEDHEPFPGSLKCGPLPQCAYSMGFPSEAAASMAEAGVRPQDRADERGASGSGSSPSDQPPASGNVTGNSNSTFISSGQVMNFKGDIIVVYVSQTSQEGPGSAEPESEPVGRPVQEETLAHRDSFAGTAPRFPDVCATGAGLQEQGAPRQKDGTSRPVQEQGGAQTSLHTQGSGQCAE
# B1: TRAF6 (protein, UniProt P70196 1-530)
# chain: MSLLNCENSCGSSQSSSDCCAAMAASCSAAVKDDSVSGSASTGNLSSSFMEEIQGYDVEFDPPLESKYECPICLMALREAVQTPCGHRFCKACIIKSIRDAGHKCPVDNEILLENQLFPDNFAKREILSLTVKCPNKGCLQKMELRHLEDHQVHCEFALVNCPQCQRPFQKCQVNTHIIEDCPRRQVSCVNCAVSMAYEEKEIHDQSCPLANIICEYCGTILIREQMPNHYDLDCPTAPIPCTFSVFGCHEKMQRNHLARHLQENTQLHMRLLAQAVHNVNLALRPCDAASPSRGCRPEDPNYEETIKQLESRLVRQDHQIRELTAKMETQSMYVGELKRTIRTLEDKVAEMEAQQCNGIYIWKIGNFGMHLKSQEEERPVVIHSPGFYTGRPGYKLCMRLHLQLPTAQRCANYISLFVHTMQGEYDSHLPWPFQGTIRLTILDQSEALIRQNHEEVMDAKPELLAFQRPTIPRNPKGFGYVTFMHLEALRQGTFIKDDTLLVRCEVSTRFDMGGLRKEGFQPRSTDAGV
# Biological target: T1, RANK (mouse (endogenous in bone marrow-derived pre-OCs))
# Assay: co-IP; lysate of pre-OCs (RIPA buffer with protease inhibitors), with or without Yoda1 for 30 min; anti-RANK antibody overnight at 4°C, Protein A/G magnetic beads, washed with TBST; blot with anti-TRAF6
binder,measurement,value
B1,binding,binds
